Laboratory results: doi:10.1101/2020.07.20.212142v1 (bioRxiv, 2020)

What was measured:
[1] = system: dechorionated and dewaxed Drosophila melanogaster hosts; type: in vivo; details: for developmental stage after incubation (in words): 20 µM peptide, within 12 hours
[2] = system: dechorionated Drosophila melanogaster hosts; type: in vivo; details: dechorionated-only hosts; 20 µM peptide overnight, room temperature

Row | Substance | developmental stage after incubation (in words) [1] | embryos transitioned to the larval state ([1]; 20 µM peptide overnight, room temperature) [%] | transition to larval state (in words) [2]
1 | TAMRA-MRKRHASRREK | remained at the embryo stage | – | –
2 | TAMRA-GEGEGEG | – | 70 | –
3 | cyclo[Glut-MRKRHASRRE-K*]-K(5-TAMRA) (sidechain bridge or staple) | progressed to the larval stage | – | did not transition to larvae
